PubChem BioAssay AID1053208 – Peter MacCallum Cancer Centre | 2014
This is a random part of about 17,000 reagents tested. 788 of all reagents (4.7%) count as active. 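Calls rest on z-score classes alone; an extra cut-off of viability at most 70% of control was not applied to them.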 Entries without a mark were called inactive. Not all columns of the deposit are shown.

Purpose: 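Synthetic lethal interactions between gene loss and doxorubicin in osteosarcoma cells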 (primary screen)
System: mouse osteosarcoma cells, early-passage culture from an engineered mouse model of fibroblastic bone tumour
Reagents: siRNA pool against mouse genes, 40 nM
Duration: about 120 h (48 h before drug, then 72 h with drug)
Conditions: doxorubicin 100 nM for 72 h, roughly 30-40% inhibitory dose
Measured: 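Luminescent ATP signal taken as viability with or without 100 nM doxorubicin for 72 h; mean of two wells set against non-targeting siRNA and turned into robust z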
Direction: viability z-score with doxorubicin: higher = more viable cells under doxorubicin; viability z-score without drug: higher = more viable cells with knock-down alone
Call rule: 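a pool counts as active when its viability z-score with doxorubicin is -2 or below and its z-score without drug lies between -2 and 2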

combined z-score class	viability z-score with doxorubicin	viability z-score without drug	gene
no change with or without drug	0	1.01	Sell
no change with or without drug	-0.34	0.84	Or1n1
no change with or without drug	0.67	1.52	Ifit1bl2
no change with or without drug	1.57	0.84	Cd6
no change with or without drug	-0.56	1.85	Adam11
low cell count with doxorubicin only (active)	-2.02	0	Polr1e
no change with or without drug	1.01	-0.51	Or1e19
no change with or without drug	-1.8	-0.17	Pkhd1l1
no change with or without drug	-0.67	0.17	Gba2
no change with or without drug	-1.12	1.18	Ptgr2
no change with or without drug	-0.9	0	Or2y14
no change with or without drug	1.46	0.17	Ttc19
no change with or without drug	1.12	-1.01	Armc5
no change with or without drug	-0.45	-0.17	G3bp1
no change with or without drug	0.22	-1.18	Pnpla6
no change with or without drug	-0.22	-0.84	Oxct1
no change with or without drug	-0.22	0.84	Vim
no change with or without drug	0.11	-0.84	Clu
no change with or without drug	1.8	1.85	Cct6b
low cell count without drug only	-1.57	-2.53	Cplx3
no change with or without drug	1.57	0.51	Hmbox1
no change with or without drug	0.22	1.85	Zfp33b
high cell count without drug only	1.69	2.02	Tubb6
low cell count with doxorubicin only (active)	-2.7	0	4930412M03Rik
no change with or without drug	0.45	0.67	Gsg1
no change with or without drug	-1.46	-1.85	T2
no change with or without drug	0.22	-0.84	Prmt5
no change with or without drug	0.45	-0.51	Bicdl2
no change with or without drug	-0.11	-0.51	Stx3
no change with or without drug	-0.9	0	Gp2
no change with or without drug	0	-1.35	Hsd17b3
no change with or without drug	-0.67	-0.84	Dpf1
no change with or without drug	0.45	0	Gbp8
no change with or without drug	-0.45	0	Papolg
no change with or without drug	-0.67	1.01	Ppp1r14c
low cell count with doxorubicin only (active)	-2.02	1.01	Klhl11
no change with or without drug	1.24	0.17	Osr1
no change with or without drug	-0.22	1.52	Hemk1
no change with or without drug	-0.45	-1.01	Mccc1
no change with or without drug	-0.79	-0.84	Padi1
no change with or without drug	-1.8	-0.17	Gskip
no change with or without drug	-0.45	0.34	Stat4
no change with or without drug	0.67	1.18	Flii
no change with or without drug	-1.24	-0.51	Depdc1b
no change with or without drug	-1.12	-0.17	Gm4814
no change with or without drug	-1.46	0.34	Prr15l
no change with or without drug	-1.57	0	Nectin4
no change with or without drug	0.34	0.17	Dnajc18
no change with or without drug	0.34	0.84	Dusp13b
no change with or without drug	-1.12	-0.84	Irx2

Records above marked active, once more:
combined z-score class	viability z-score with doxorubicin	viability z-score without drug	gene
low cell count with doxorubicin only (active)	-2.02	0	Polr1e
low cell count with doxorubicin only (active)	-2.7	0	4930412M03Rik
low cell count with doxorubicin only (active)	-2.02	1.01	Klhl11
